{"sequences": {"note": "By UniProt entry, the sequences of proteins in these tests, tags left out.", "UniProt P18054, whole entry, looked up": "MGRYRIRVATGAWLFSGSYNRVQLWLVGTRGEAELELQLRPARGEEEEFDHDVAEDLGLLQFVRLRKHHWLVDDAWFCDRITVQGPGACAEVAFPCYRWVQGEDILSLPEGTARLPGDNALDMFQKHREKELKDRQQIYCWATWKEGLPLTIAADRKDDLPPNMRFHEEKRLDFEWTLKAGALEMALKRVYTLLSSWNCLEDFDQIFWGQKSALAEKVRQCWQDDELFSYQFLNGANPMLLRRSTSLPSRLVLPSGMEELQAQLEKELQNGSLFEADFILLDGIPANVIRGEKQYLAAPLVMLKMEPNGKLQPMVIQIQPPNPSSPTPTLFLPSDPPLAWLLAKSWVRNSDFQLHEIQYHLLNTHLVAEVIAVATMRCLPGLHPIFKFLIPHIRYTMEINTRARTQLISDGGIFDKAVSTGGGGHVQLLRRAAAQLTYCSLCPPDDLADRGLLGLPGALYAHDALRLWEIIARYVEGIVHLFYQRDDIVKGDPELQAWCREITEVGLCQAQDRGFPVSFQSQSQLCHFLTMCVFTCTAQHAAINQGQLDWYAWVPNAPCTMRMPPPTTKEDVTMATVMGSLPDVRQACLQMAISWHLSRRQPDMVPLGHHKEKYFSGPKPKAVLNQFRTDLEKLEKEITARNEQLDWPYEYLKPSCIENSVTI"}, "source": "PubChem BioAssay AID1671190", "about": "(National Center for Advancing Translational Sciences (NCATS), 2021)", "note": "Screen size: about 580,000 compounds; about 6,100 (1.1%) were called active. The shares of active, inactive and inconclusive entries below differ from those in the screen. The call rests on the fitted dose curve; in most records, active means well fitted inhibition curve with a large enough effect; inconclusive means small, poorly fitted or top-dose-only effect, or another doubt; inactive means no such curve, though single readings can be large or run the other way. A potency beside an inconclusive call is a rough fit, not a confirmed value. Potency means the concentration at half of the fitted maximal effect.", "data": [{"target": "Polyunsaturated fatty acid lipoxygenase ALOX12 (Homo sapiens) (UniProt P18054)", "experiment": "Primary qHTS assay for inhibitors of human arachidonate 12S-lipoxygenase (ALOX12): Round 2", "settings": "purified 12hLO, xylenol orange hydroperoxide absorbance; series mostly up to 108 µM", "method_in_brief": "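Hydroperoxide product was detected by ferrous iron/xylenol orange as the 573 to 405 nm absorbance ratio. Arachidonic acid at 40 uM (final) was turned over for 30 min at room temperature by 150 nM human 12hLO, pH 7.0 Hepes buffer, after 15 min compound preincubation.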", "values": [{"smiles": "C[C@@H]1COc2cccc(NCCCN3CCOCC3)c2S(=O)(=O)N1", "Potency": "inconclusive: 50.1 µM [inhibitor, partial curve, poor fit]"}, {"smiles": "CC(=O)c1c(C)[nH]c(C(=O)C(C)OC(=O)c2ccc(Cl)cc2F)c1C", "note": "(stereo not drawn)", "Potency": "inconclusive: 89.1 µM [inhibitor, single point]"}, {"smiles": "CCOC(=O)C1CCN(Cc2cccc(Oc3ccc(Cl)cc3)c2)CC1", "Potency": "active: 1.41 µM"}, {"smiles": "O=C(NC1CCCCC1)C(c1cccnc1)N(C(=O)CCl)c1cccc(Cl)c1", "note": "(stereo not drawn)", "Potency": "inconclusive: 112 µM [inhibitor, partial curve, poor fit]"}, {"smiles": "CN(C1CCCCC1)S(=O)(=O)c1ccc2c(c1)c(=O)c(C(=O)NCCc1ccc(Cl)cc1)cn2C", "Potency": "inconclusive: 12.6 µM [inhibitor, partial curve, poor fit]"}, {"smiles": "O=C(CCN1C(=O)/C(=C/c2ccccc2Cl)SC1=S)Nc1ccccc1C(=O)O", "Potency": "inconclusive: 39.8 µM [inhibitor, single point]"}, {"smiles": "Cc1noc(C)c1S(=O)(=O)Nc1ccc2c(c1)C(=O)N([C@H](C)CO)C[C@H](C)[C@@H](CN(C)C(=O)NC(C)C)O2", "Potency": "inconclusive: 28.2 µM [inhibitor, single point]"}, {"smiles": "CCS(=O)(=O)N1CCC(C(=O)NCCC(C)C)CC1", "Potency": "inactive"}, {"smiles": "CC(=O)Nc1ccc(NC(=O)C(C)OC(=O)CCCOc2ccc(Cl)c(C)c2)cc1", "note": "(stereo not drawn)", "Potency": "inconclusive: 100 µM [inhibitor, partial curve, poor fit]"}, {"smiles": "C=CCc1cccc2cc(C(=O)N3CCN(C(=O)c4ccccc4)CC3)c(=O)oc12", "Potency": "inconclusive: 44.7 µM [inhibitor, partial curve, poor fit]"}, {"smiles": "CC1=CC(C)(C)Nc2ccc(OC(=O)CN3C(=O)c4cccc5cccc(c45)C3=O)cc21", "Potency": "inactive"}, {"smiles": "O=C1N[C@@H](Cc2ccccc2)C(=O)N2[C@H]1C[C@]1(Br)c3ccccc3N(S(=O)(=O)c3ccc(F)cc3)[C@H]21", "Potency": "inconclusive: 25.1 µM [inhibitor, partial curve, poor fit]"}, {"smiles": "CC1CCN(C(=O)Cn2c(SCC(=O)Nc3nccs3)nc3ccccc32)CC1", "Potency": "inconclusive: 10 µM [inhibitor, partial curve, poor fit]"}, {"smiles": "N#Cc1ccc(CN2CCN(C(=O)CCNS(=O)(=O)c3ccc(F)c(F)c3)CC2)cc1", "Potency": "inactive"}, {"smiles": "CCCCCn1cnc2sc(CC)cc2c1=O", "Potency": "inactive"}, {"smiles": "CCOC(=O)C1CCCN(C(=O)c2cc3cc(F)ccc3[nH]2)C1", "note": "(stereo not drawn)", "Potency": "inactive"}, {"smiles": "COc1ccc(-c2cc3ncc(C(=O)c4cc(Cl)c(C)cc4O)cn3n2)cc1", "Potency": "inactive"}, {"smiles": "COc1cc(C2C(C(=O)c3cc4ccccc4o3)=C(O)C(=O)N2CCN2CCOCC2)ccc1OCCC(C)C", "note": "(stereo not drawn)", "Potency": "inconclusive: 15.8 µM [inhibitor, partial curve, poor fit]"}]}]}
